Results as given in article PMC8998178.
Results are given in words; binding and its absence hold for the method and conditions named. Some entries that bind do so weakly or less than the wild type.

Amino acid sequences for entries named in this document (tags omitted).
UniProt P51608: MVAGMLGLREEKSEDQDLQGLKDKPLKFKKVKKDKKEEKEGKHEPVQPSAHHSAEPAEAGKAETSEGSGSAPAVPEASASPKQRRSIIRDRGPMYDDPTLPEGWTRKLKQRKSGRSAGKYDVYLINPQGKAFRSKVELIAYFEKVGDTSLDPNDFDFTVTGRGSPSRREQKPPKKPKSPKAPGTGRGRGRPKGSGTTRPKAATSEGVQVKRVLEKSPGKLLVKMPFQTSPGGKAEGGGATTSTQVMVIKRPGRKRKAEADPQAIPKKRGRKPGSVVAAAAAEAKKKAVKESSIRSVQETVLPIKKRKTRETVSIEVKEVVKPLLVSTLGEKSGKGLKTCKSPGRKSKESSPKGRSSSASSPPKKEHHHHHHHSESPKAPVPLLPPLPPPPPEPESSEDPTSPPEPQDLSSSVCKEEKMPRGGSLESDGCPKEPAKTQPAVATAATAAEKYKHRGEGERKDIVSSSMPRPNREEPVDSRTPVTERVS

Molecular target: recombinant full-length human MeCP2 with a Flag-tag (human) (UniProt P51608)
Experiment: ELISA; competition ELISA: Flag-tagged MeCP2 coated (25 µL of 10 µg/mL); 2.5 µM L1-ICD preincubated for 1 h without or with a 5-fold molar excess of L1 peptides; detection with L1 antibody C-2; both purified

Binder | binding
CFIKRSKGGKYSVKDKEDTQVDSEARPMKDETFGE [synthetic L1 peptide P1] | binds
RPMKDETFGEYRSLESDNEEKAFGSSQPSLNGDIK [synthetic L1 peptide P2] | binds
EDTQVDSEARPMKDET [synthetic L1 peptide Pb] | binds
KDETFGEYRSLESDNEEK [synthetic L1 peptide Pc] | binds
